PubChem BioAssay AID743454, Peter MacCallum Cancer Centre, 2014
Test: 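Knock-downs lowering viability or raising caspase 3/7 activity in vorinostat-treated resistant cells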 (primary screen). System: human HCT116-VR colon cancer cells, selected for vorinostat resistance. Knock-down reagent: siRNA pool against human genes, 40 nM siRNA pool. Time to read-out: vorinostat for 24 h, read-out about 72 h after transfection. Treatment: vorinostat at 2.5 µM final. Detection: 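Two measures, CellTiter-Fluor viability and luminescent caspase 3/7 activity, each as fold change against same-plate mock wells, mean of duplicates, then screen-wide robust z-score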. Reading the numbers: viability robust z-score: higher = more viable cells than screen typical; caspase robust z-score: higher = more caspase 3/7 activity than screen typical. Rule for the call: 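a knock-down is a hit when classed RV1 or RV2 for lowered viability, or CA1 or CA2 for caspase activation; those lethal without drug were dropped; hits were retested singly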.
Here is one part, drawn at random, of about 18,000 reagents tested. 450 of all reagents (2.5%) were called active. 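Single biological run; no consistent viability z cut-off exists, so the class columns, not z-scores, define the calls.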

{"target":"OPHN1","viability hit class":"no change","caspase hit class":"no change","viability robust z-score":0.16,"caspase robust z-score":-0.54,"Outcome":"inactive"}
{"target":"RTL8C","viability hit class":"no change","caspase hit class":"no change","viability robust z-score":0.32,"caspase robust z-score":0.84,"Outcome":"inactive"}
{"target":"RNF7","viability hit class":"no change","caspase hit class":"no change","viability robust z-score":1.39,"caspase robust z-score":1.26,"Outcome":"inactive"}
{"target":"CTSZ","viability hit class":"no change","caspase hit class":"no change","viability robust z-score":-0.52,"caspase robust z-score":3.2,"Outcome":"inactive"}

Limited to “caspase hit class”, for 2 of the entries above:
RTL8C = no change
RNF7 = no change

The listing continues:
{"target":"HPS5","viability hit class":"no change","caspase hit class":"no change","viability robust z-score":-0.23,"caspase robust z-score":0.88,"Outcome":"inactive"}
{"target":"RPL6","viability hit class":"no change","caspase hit class":"no change","viability robust z-score":-4.93,"caspase robust z-score":-0.86,"Outcome":"inactive"}
{"target":"LAMA2","viability hit class":"no change","caspase hit class":"no change","viability robust z-score":1.1,"caspase robust z-score":-1.01,"Outcome":"inactive"}
{"target":"TOP2B","viability hit class":"no change","caspase hit class":"no change","viability robust z-score":0.52,"caspase robust z-score":-0.5,"Outcome":"inactive"}
{"target":"SAMD9","viability hit class":"no change","caspase hit class":"no change","viability robust z-score":0.18,"caspase robust z-score":0.7,"Outcome":"inactive"}
{"target":"HCRTR1","viability hit class":"no change","caspase hit class":"no change","viability robust z-score":0.68,"caspase robust z-score":0.43,"Outcome":"inactive"}
{"target":"BCO1","viability hit class":"no change","caspase hit class":"no change","viability robust z-score":0.6,"caspase robust z-score":-0.16,"Outcome":"inactive"}
{"target":"HSPA4L","viability hit class":"no change","caspase hit class":"no change","viability robust z-score":0.94,"caspase robust z-score":-0.74,"Outcome":"inactive"}
